Consider one substance from paper PMC9260856.

Chains of the proteins cited; added tags and fusions are not shown. Lines headed by an entry give the natural chain unless they say otherwise; changes in a name come on top.
UniProt Q6PIJ6: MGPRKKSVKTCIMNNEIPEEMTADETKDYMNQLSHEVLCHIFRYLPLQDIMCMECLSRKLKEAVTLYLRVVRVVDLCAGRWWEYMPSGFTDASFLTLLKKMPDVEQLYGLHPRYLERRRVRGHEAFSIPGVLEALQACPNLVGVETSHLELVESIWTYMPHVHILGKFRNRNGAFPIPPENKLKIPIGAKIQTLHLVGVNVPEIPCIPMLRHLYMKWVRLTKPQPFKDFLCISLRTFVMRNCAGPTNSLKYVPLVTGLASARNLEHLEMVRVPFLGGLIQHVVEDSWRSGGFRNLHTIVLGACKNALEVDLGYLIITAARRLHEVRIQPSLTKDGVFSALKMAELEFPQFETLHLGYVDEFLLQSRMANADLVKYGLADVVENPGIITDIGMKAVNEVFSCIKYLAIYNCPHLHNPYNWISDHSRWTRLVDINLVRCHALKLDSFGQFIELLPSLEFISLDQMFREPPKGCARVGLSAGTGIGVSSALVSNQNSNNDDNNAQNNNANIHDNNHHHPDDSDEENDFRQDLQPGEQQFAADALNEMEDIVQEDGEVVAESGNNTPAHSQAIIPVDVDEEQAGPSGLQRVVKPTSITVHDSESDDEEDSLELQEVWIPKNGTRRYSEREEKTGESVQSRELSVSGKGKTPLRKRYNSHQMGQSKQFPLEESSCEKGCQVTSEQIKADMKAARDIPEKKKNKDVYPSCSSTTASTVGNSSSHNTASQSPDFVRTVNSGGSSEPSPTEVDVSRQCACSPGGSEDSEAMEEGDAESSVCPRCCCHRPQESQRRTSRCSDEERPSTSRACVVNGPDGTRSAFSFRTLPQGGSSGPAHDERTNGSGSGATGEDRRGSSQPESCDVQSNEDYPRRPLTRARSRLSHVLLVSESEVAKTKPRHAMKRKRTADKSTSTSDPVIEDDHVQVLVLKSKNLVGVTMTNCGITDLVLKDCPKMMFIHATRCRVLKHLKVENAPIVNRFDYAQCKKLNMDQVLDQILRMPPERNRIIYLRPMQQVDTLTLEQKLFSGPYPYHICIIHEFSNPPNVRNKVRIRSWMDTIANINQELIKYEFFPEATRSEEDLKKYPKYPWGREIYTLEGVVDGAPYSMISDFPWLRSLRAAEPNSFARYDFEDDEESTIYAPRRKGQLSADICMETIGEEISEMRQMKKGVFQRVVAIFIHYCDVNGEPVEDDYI
UniProt Q93009: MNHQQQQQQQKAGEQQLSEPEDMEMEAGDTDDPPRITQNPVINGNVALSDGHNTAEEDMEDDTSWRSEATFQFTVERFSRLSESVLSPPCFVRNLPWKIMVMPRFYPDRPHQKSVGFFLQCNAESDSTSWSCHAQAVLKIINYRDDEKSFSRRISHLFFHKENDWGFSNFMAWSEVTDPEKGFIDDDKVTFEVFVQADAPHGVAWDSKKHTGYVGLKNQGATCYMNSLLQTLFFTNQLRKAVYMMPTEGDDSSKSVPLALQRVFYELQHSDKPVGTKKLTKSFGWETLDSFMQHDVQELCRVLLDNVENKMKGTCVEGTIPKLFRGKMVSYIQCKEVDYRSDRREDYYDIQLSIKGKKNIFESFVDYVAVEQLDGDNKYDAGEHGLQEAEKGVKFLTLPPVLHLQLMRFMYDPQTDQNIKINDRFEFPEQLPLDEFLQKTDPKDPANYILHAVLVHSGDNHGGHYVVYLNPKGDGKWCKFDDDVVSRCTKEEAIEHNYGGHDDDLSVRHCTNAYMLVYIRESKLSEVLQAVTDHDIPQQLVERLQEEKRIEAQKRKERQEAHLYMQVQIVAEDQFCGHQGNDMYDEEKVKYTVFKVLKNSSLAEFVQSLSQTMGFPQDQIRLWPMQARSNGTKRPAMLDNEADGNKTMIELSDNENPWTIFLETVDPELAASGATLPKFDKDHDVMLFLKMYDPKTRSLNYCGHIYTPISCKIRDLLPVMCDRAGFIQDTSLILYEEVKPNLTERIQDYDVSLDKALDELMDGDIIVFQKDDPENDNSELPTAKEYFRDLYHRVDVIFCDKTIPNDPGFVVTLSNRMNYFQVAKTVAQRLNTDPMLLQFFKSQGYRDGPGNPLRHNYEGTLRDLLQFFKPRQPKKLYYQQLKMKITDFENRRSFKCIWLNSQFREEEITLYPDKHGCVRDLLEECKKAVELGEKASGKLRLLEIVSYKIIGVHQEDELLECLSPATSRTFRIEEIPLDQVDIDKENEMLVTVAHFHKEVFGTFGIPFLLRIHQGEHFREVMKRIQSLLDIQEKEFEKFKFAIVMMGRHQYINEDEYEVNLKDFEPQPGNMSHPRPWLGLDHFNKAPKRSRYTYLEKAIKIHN

Results are given in words; binding and its absence hold for the method and conditions named. Binding seen in cells or lysates may run through a third protein. A result given as binding can be weak or reduced; the word gives no strength.

This test deals with StrepII-FLAG-tagged FBXO38 lacking the F-box motif (FBXO38^ΔFBOX) (human) (UniProt Q6PIJ6). The test can be described thus: co-IP; SF-tagged bait affinity-purified on Strep-Tactin Sepharose from whole-cell lysates of transfected HEK293T cells (150 mM NaCl, 50 mM Tris pH 7.5, 0.4% Triton X-100, Benzonase), desthiobiotin elution, immunoblot; MLN4924 before collecting where indicated.

Regarding “USP7 deubiquitinase, endogenous in HEK293T cells (from UniProt Q93009 1-1102) (enzyme)”, the binding result was “binds”.
